From PubChem BioAssay AID540256 (National Center for Advancing Translational Sciences (NCATS), 2011)
Hit rate of the full screen: of about 300,000 compounds, about 3,700 (1.2%) were called active. This list was built around the results that the source calls inconclusive (neither active nor inactive); the mix of calls is not that of the screen. The call rests on the fitted dose curve; tested in HEK293 cells. Where the call is inconclusive, the potency comes from a doubtful curve fit.

Assay: qHTS for Inhibitors of binding or entry into cells for Lassa Virus; further: nearly all actives have a fitted effect of over 50% in size
Conditions: Lassa virus pseudotype entry inhibition, cell reporter; series mostly up to 37.9 µM
Potency means the concentration at half of the fitted maximal effect.

| Structure (SMILES) | Potency |
| --- | --- |
| O=C(Cc1ccccc1[N+](=O)[O-])NCCCc1ccccc1 | inconclusive: 2.24 µM [inhibitor, partial curve, poor fit] |
| O=C(Nc1ccc(Cl)cn1)c1cccc(F)c1 | inactive |
| COc1cccc(Nc2c([N+](=O)[O-])cncc2[N+](=O)[O-])c1 | inconclusive: 3.16 µM [inhibitor, partial curve, poor fit] |
| COc1ccc(N=c2cc(-c3ccc(OC)cc3)oc3ccccc23)cc1 | inconclusive: 22.4 µM [inhibitor, single point] |
| CCOC(=O)N1CCC(N(CCN(C)C)C(=S)Nc2ccc(F)c(Cl)c2)CC1 | inactive |
| Cc1cccc(NC(=O)CNC(=O)CN2C(=O)NC3(CCCc4ccccc43)C2=O)c1C (centres undefined) | inconclusive: 1.26 µM [inhibitor, single point] |
| CN1CCN(c2ccccc2NC(=O)c2sc3ccccc3c2Cl)CC1 | inconclusive: 35.5 µM [inhibitor, single point] |
| S=C(Nc1cccc(Br)c1)c1ccccc1 | inconclusive: 23.1 µM [activator, partial curve] |
| COC(=O)Cc1c(C(=O)OC)nnn1-c1cccc(C(F)(F)F)c1 | inactive |
| COc1ccc(CN(C(=O)CN2C(=O)COc3ccccc32)C2CCCC2)c(OC)c1 | inconclusive: 0.058 µM [inhibitor, full curve, poor fit] |
| Cc1ccc(C(=O)CSc2nnc(-c3c[nH]c4ccccc34)o2)cc1 | inconclusive: 32.6 µM [inhibitor, partial curve, poor fit] |
| O=C(NNC(=O)c1ccccn1)c1ccc(OC(F)F)cc1 | inconclusive: 35.5 µM [inhibitor, single point] |
| Cc1cccc(N2CCN(C(=O)Cn3cnc4c3c(=O)n(C)c(=O)n4C)CC2)c1C | inconclusive: 35.5 µM [inhibitor, single point] |
| Cc1ccc(S(=O)(=O)N2CCCOC2CNC(=O)C(=O)NCCc2c[nH]c3ccccc23)cc1 (centres undefined) | inconclusive: 22.4 µM [inhibitor, partial curve, poor fit] |
| N/C(=N\OC(=O)c1ccc(Cl)cc1)c1ccccn1 | inconclusive: 8.2 µM [inhibitor, partial curve, poor fit] |
| COc1ccc2nc(SC)cc(C)c2c1 | inconclusive: 0.501 µM [inhibitor, partial curve, poor fit] |
| O=C(CSc1nc(-c2ccccc2)cc(C(F)(F)F)n1)NCc1ccco1 | inactive |
| Cc1cc(C)cc(OCc2cc(=O)n3c4c(sc3n2)CCCC4)c1 | inactive |
| Cc1ccc(NC(=O)Cn2c(O)c(N=NS(=O)(=O)c3ccc(C)cc3)c3ccccc32)cc1 | inconclusive: 25.9 µM [inhibitor, single point] |
| CC(C)Oc1ccc(CNC(=O)C2CCCCN2S(=O)(=O)c2ccc(F)cc2)cc1 (centres undefined) | inconclusive: 5.62 µM [inhibitor, partial curve, poor fit] |
| COc1cc(C2C(C#N)=C(N)N(c3sc4c(c3C#N)CCCC4)C3=C2C(=O)CC(C)(C)C3)cc(OC)c1OC (centres undefined) | inconclusive: 9.2 µM [inhibitor, partial curve] |
| Cn1c(SCC(=O)N2CCN(c3ccccc3)CC2)nnc1-c1ccco1 | inconclusive: 3.26 µM [activator, partial curve, poor fit] |
| CCn1c2ccccc2c2cc(NC(=O)CSc3nnc(C4CC4)n3Cc3ccco3)ccc21 | inconclusive: 25.9 µM [inhibitor, partial curve] |

| Structure (SMILES) | Potency |
| --- | --- |
| O=C(c1ccccc1Cc1ccccc1)N1CCN(S(=O)(=O)c2ccccc2[N+](=O)[O-])CC1 | inactive |
| CCC(C)NC(=O)CSc1nc(-c2ccc(F)cc2)cc(C(F)(F)F)n1 (centres undefined) | inconclusive: 3.16 µM [inhibitor, single point] |
| CCCCc1oc2c(c(=O)c1C)C(=O)CC(c1ccccc1)C2 (centres undefined) | inconclusive: 16.4 µM [inhibitor, partial curve, poor fit] |
| COc1ccc(C(=O)COC(=O)C2CCN(S(=O)(=O)c3cccc4cccnc34)CC2)cc1 | inactive |
| NC(=O)Nc1ccccc1C(=O)N1CCC(O)(c2ccc(Cl)cc2)CC1 | inconclusive: 11.2 µM [activator, single point] |
| COc1cc(CCC(C)NCc2ccccc2)ccc1O (centres undefined) | inconclusive: 31.6 µM [activator, single point] |
| CCOC(=O)N1CCN(Cc2nc(N)nc(Nc3ccc(C)cc3)n2)CC1 | inconclusive: 9.2 µM [activator, partial curve, poor fit] |
| CC(=C/c1ccc(C(C)C)cc1)/C=N/NC(=O)Cn1nc(C)cc1C | inactive |
| Cc1nn(Cc2ccccc2)c2c1C(c1ccco1)C(C#N)=C(N)O2 (centres undefined) | inactive |
| CC(CNC(=S)Nc1cc(F)cc(F)c1)CSc1ccc(Cl)cc1 (centres undefined) | inconclusive: 35.5 µM [inhibitor, single point] |
| Cc1ccccc1CN(C)Cc1cc(=O)oc2c(C)c(C)ccc12 | active: 2.82 µM |
| COc1cccc(NC(=O)c2cnc(SC)nc2)c1 | inactive |
| CCCOc1ccc(C(=O)CCN2CCCCC2)cc1 | inconclusive: 35.5 µM [inhibitor, single point] |
| CCCC(=O)N/C(N)=N/c1nc(C)c2ccccc2n1 | inconclusive: 35.5 µM [inhibitor, single point] |
| N#Cc1cnc(N)c(Br)c1 | inconclusive: 28.2 µM [inhibitor, single point] |
| O=C(NN=Cc1ccc(N(CCCl)CCCl)cc1)c1cccnc1 | inconclusive: 7.08 µM [inhibitor, full curve, poor fit] |
| Cc1ccc(S(=O)(=O)N/N=C/c2ccc(C(=O)O)cc2)cc1 | inconclusive: 14.1 µM [activator, partial curve, poor fit] |
| COc1cc(/C=N/NS(=O)(=O)c2ccc(C)cc2)ccc1OCc1ccc(C(=O)O)cc1 | active: 6.31 µM |
| CN(C)CCOC(=O)c1cccc(Br)c1 | inactive |
| COc1cccc(C(=O)NC2CC3CCCC(C2)N3CC(=O)Nc2ccccc2C(F)(F)F)c1 (centres undefined) | inconclusive: 35.5 µM [inhibitor, single point] |
| COc1cc(OC)c(N(C)C(=O)Cn2ncc3c(=O)oc4ccccc4c32)cc1Cl | inconclusive: 2.82 µM [activator, full curve, poor fit] |
| COc1ccc(CC(=O)Nc2nc3ccccc3s2)cc1S(=O)(=O)N1CCOCC1 | inconclusive: 8.2 µM [inhibitor, partial curve] |
| C=CCn1c(SCC#N)nc2ccccc2c1=O | inactive |

| Structure (SMILES) | Potency |
| --- | --- |
| CCOC(=O)c1c(NC(NC(C)=O)C(Cl)(Cl)Cl)sc2c1CCCC2 (centres undefined) | inconclusive: 10 µM [inhibitor, partial curve, poor fit] |
| Cc1ccc(C(=O)NNC(=O)Cn2nnc3ccccc32)cc1 | inconclusive: 11.6 µM [activator, partial curve] |
| CS(=O)(=O)Cc1nc2ccccc2oc1=O | inconclusive: 1.12 µM [inhibitor, partial curve, poor fit] |
| COC(=O)c1ccc(C(=O)N(Cc2ccccc2)c2ccccc2)cc1 | inconclusive: 8.91 µM [inhibitor, partial curve] |
| CC(C)(C)C(=O)Nc1ccc2nc(SCC(=O)N3CCc4ccccc43)sc2c1 | inconclusive: 35.5 µM [inhibitor, single point] |
| COc1ccccc1-n1c(=O)c2c3c(sc2n(Cc2ccccc2F)c1=O)CN(C(C)=O)CC3 | inactive |
| Cc1c(C(=O)N2CCOCC2)sc(NC(=O)c2ccccc2F)c1C#N | inactive |
| COc1ccc(CN2CCc3ccc(NC(=O)CCc4ccccc4OC)cc3C2)c(O)c1 | inconclusive: 11.2 µM [inhibitor, single point] |
| Clc1cccc(Cl)c1/C=C/c1nc2ccccc2[nH]1 | inconclusive: 18.3 µM [inhibitor, single point] |
| COc1cccc(C2CC3(CC(C)(C)NC(=S)N3)Oc3cc(O)ccc32)c1 (centres undefined) | inconclusive: 15.8 µM [inhibitor, partial curve, poor fit] |
| COc1ccc2cc(CNc3ccc(C)cc3)c(=O)n(CC(=O)Nc3cccc(C(F)(F)F)c3)c2c1 | inactive |
| c1ccc(OCCOc2ncnc3ccccc23)cc1 | inconclusive: 3.55 µM [activator, partial curve, poor fit] |
| CCOc1ccc(OCc2ccc(C(=O)N/N=C(\C)c3ccccn3)cc2)cc1 | active: 11.2 µM |
| Cc1ccc(Cn2c(SCC(C)C)nc3c2c(=O)n(C)c(=O)n3C)cc1 | inconclusive: 29.1 µM [inhibitor, single point] |
| S=c1nccc(-c2ccc(Cl)cc2)[nH]1 | inactive |
| O=C(CSc1nnc(NC(=O)C2CC2)s1)Nc1ccccc1C(F)(F)F | inactive |
| O=C(NCCCCc1ccccc1)C1CCCC1 | inconclusive: 35.5 µM [inhibitor, single point] |
| COC(=O)N/N=C/c1ccc([N+](=O)[O-])o1 | inactive |
| NC(=O)COc1cccc2cccnc12 | inconclusive: 32.6 µM [activator, single point] |
| Cc1cccc(NS(=O)(=O)c2ccc3c(c2)OCC(C(=O)N2CCCC2)O3)c1C (centres undefined) | inactive |
| Cc1ccc2nc(-c3ccc4c(c3)OCCO4)cc(C(=O)O)c2c1 | inconclusive: 11.2 µM [inhibitor, partial curve] |
| O=[N+]([O-])c1ccc(/C=N/Nc2cc(Cl)nc(-c3ccccc3)n2)cc1 | inactive |
| O=C1/C(=C/c2ccc([N+](=O)[O-])cc2)CCC1C1CCCC1 (centres undefined) | inconclusive: 11.2 µM [activator, partial curve, poor fit] |

Rewritten field by field: entries from further up
CS(=O)(=O)Cc1nc2ccccc2oc1=O
  Potency: inconclusive: 1.12 µM [inhibitor, partial curve, poor fit]
COC(=O)c1ccc(C(=O)N(Cc2ccccc2)c2ccccc2)cc1
  Potency: inconclusive: 8.91 µM [inhibitor, partial curve]
CC(C)(C)C(=O)Nc1ccc2nc(SCC(=O)N3CCc4ccccc43)sc2c1
  Potency: inconclusive: 35.5 µM [inhibitor, single point]
c1ccc(OCCOc2ncnc3ccccc23)cc1
  Potency: inconclusive: 3.55 µM [activator, partial curve, poor fit]
